At least one compound was matched to its structure with a doubt left.
Tested on: Tc1 cells
Assay: Intracellular cytokine staining / flow cytometry of genipin-treated skewed Tc1 cells
Assay type: cell-based, Mouse
Details: added to genipin-treated Tc1 cells
Procedure: Mouse lymph nodes and spleens were harvested, and naïve CD4 or CD8 T cells isolated via magnetic bead separation (STEMCELL Technologies) and activated in α-CD3 (10 μg/ml) and α-CD28 (1 μg/ml) pre-coated 96-well plates. Skewing conditions were as follows: Th1 cells/Tc1 cells ([…] 10 μ/ml α-IL-4), Th2 cells/Tc2 cells (20 ng/ml IL-4 and 10 μ/ml α-IFN-γ), Th17 cells/Tc17 cells (20 ng/ml IL-6, 1.25 ng/ml […], 20 ng/ml IL-1β, 20 ng/ml IL-23, 10 μg/ml α-IFN-γ and 10 μg/ml α-IL-4), and Treg cells (5 ng/ml TGF-β, 10 μg/ml α-IFN-γ and 10 μg/ml α-IL-4) in the indicated medium. Cells were cultured for 4-5 days followed by treatment with genipin (3.125 μM, 6.25 μM, 12.5 μM) or DMSO for 12-16 hours.
Monoclonal antibodies were purchased from BD Biosciences or eBioscience. For intracellular cytokine staining (ICS), cells were first restimulated by PMA/ionomycin for 5 hours in the presence of GolgiStop (BD Biosciences), followed by surface epitope staining markers before being fixed/permeabilized (BD Cytofix/Cytoperm™) and stained with antibodies targeting intracellular antigens. Cells were finally fixed with 1.5% formaldehyde for 10 minutes at room temperature and analyzed on a FACSVerse flow cytometer (BD Bioscience). Data were analyzed using FlowJo software (Tree Star Inc.).

CO[C@H]1C[C@@H]2CC[C@@H](C)[C@@](O)(O2)C(=O)C(=O)N2CCCC[C@H]2C(=O)O[C@H]([C@H](C)C[C@@H]2CC[C@@H](O)[C@H](OC)C2)CC(=O)[C@H](C)/C=C(\C)[C@@H](O)[C@@H](OC)C(=O)[C@H](C)C[C@H](C)/C=C/C=C/C=C/1C [rapamycin]
IFN-γ expression in genipin-treated Tc1 cells, effect of added inhibitor (FIG. 2N): significantly suppressed
T-bet expression in genipin-treated (UCP2-deprived) Tc1 cells, effect of added inhibitor (FIG. 2R-2S): blocked the positive regulation of T-bet
